In paper PMC13065503:
For at least one entry, the source does not settle the construct or the ends of the probe. At least one verdict was read from the data and is not stated in words by the source.

Amino acid sequences for entries named in this document (tags omitted). Residues count along the entry.
UniProt P01106, 365-454 V376C/N383C/C453A: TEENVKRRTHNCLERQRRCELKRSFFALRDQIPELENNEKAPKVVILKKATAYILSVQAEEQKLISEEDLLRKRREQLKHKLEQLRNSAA
UniProt P01106, 365-454 T365C/V369C/C453A: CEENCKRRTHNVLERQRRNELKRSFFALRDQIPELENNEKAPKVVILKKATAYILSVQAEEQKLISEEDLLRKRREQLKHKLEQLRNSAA
UniProt P01106, 365-454 V369C/T373C/C453A: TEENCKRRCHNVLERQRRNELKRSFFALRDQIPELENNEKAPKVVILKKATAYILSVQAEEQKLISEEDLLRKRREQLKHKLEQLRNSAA
UniProt P01106, 365-454 V369C/V376C/C453A: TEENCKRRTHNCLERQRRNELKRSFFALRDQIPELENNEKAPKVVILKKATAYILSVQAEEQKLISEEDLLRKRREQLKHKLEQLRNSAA

Tests used:
Assay in all cases: EMSA
Conditions in all cases: range over HeloMYC variants 8-11, individual value only in Figure 3C; EMSA: 20 mM HEPES pH 8.0, 150 mM NaCl, 5% glycerol, 1 mM EDTA, 2 mM MgCl2, 0.5 mg/mL BSA, 1 mM DTT, 0.05% NP-40; 4 nM DNA; 30 min RT then 15 min on ice; recombinant protein; protein details: His-tag, enterokinase cleavage
[1] = biological target: HeloMYC-1421 (8) V376C,N383C,C453A (UniProt P01106)
[2] = biological target: HeloMYC-37 (10) T365C,V369C,C453A (UniProt P01106)
[3] = biological target: HeloMYC-711 (11) V369C,T373C,C453A (UniProt P01106)
[4] = biological target: HeloMYC-714 (9) V369C,V376C,C453A (UniProt P01106)

Measured: binding result

ACCCCACCACGTGGTGCCT (double strand) [E-box DNA]
binds: all assays above
